Experimental data as given in patent publication US20040043083A1, “Anticancer composition comprising sesquiterpenes isolated from resina ferulae” (priority 2000, published 2004).
Some of these results come from one statement about several compounds together. At least one structure is not confirmed: it was looked up by name or label, or the drawing left a doubt.

Test system: human cancer cell lines
Assay: Inhibition of human cancer cell line proliferation (SRB method), cell line not specified
Format: cell-based
Conditions: summary of Table 1

Structure (SMILES) | inhibitory activities against various cancer cell lines (in words)
CC(C)=CCC/C(C)=C/CC/C(C)=C/COc1ccc2ccc(=O)oc2c1 [Compound 3, umbelliprenin] | potent inhibitory activities
C=C1CC[C@@H](O)C(C)(C)C1CC/C(C)=C/COc1ccc2ccc(=O)oc2c1 (some centres unmarked) [Compound 4, farnesiferol B] | potent inhibitory activities
CC(C)=C1CCC(C)C(C)(COc2ccc3ccc(=O)oc3c2)C1CCC(=O)O (centres unmarked) [Compound 1, galbanic acid] | potent inhibitory activities
C/C(=C\COc1ccc2ccc(=O)oc2c1)CC[C@@H]1C(C)(C)[C@H]2CC[C@]1(C)O2 [Compound 5, farnesiferol C] | potent inhibitory activities
C/C(=C\COc1ccc2ccc(=O)oc2c1)CC/C=C(\C)CCC(O)C(C)(C)O (centres unmarked) [Compound 2, karatavicinol] | potent inhibitory activities
